Measurements reported in PubChem BioAssay AID1259284 (Sanger Institute, 2017)

Purpose: 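Kinase genes needed for growth or acting with cancer drugs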 (primary screen)
Cells: SW48 human colorectal cancer cells
Knock-down reagent: siRNA pool against human genes
Challenge: anchor drug BYL719 at 1 µM, cetuximab at 5 µg/ml or trametinib at 10 nM, or DMSO vehicle alone
Detection: 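Viability scaled to non-targeting control pool, robust z-score from controls, and synergy scores for each drug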
Direction: robust z-score, no drug: higher = more cells survive knock-down
Hit rule: 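Called essential when the robust z-score of viability without drug falls below -3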
Calls: active = essential without drug; inactive = no change without drug
In all, the deposit lists 794 reagents; shown is a part drawn at random. Over the whole deposit, 16 (2%) were called active. 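Calls concern knock-down without drug only; drug synergy was judged apart, with scores above 0.15 taken as synergy.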 Not all columns of the deposit are shown. No sequences are given here. Not stated in the record: the amount of reagent, the time to read-out.

For RIOK2 (RIO kinase 2) the deposit lists robust z-score, no drug 0.426; inactive.
After knock-down of CDK6 (cyclin dependent kinase 6), the screen gave robust z-score, no drug 0.426; inactive.
With knock-down of RIPK1 (receptor interacting serine/threonine kinase 1) the results were robust z-score, no drug -0.276; inactive.
For SIK2 (salt inducible kinase 2) the deposit lists robust z-score, no drug -0.431; inactive.
KALRN (kalirin RhoGEF kinase) showed robust z-score, no drug 0.426; inactive.
Depletion of NME3 (NME/NM23 nucleoside diphosphate kinase 3) resulted in: robust z-score, no drug 0.226; inactive.
ATR (ATR checkpoint kinase) scored robust z-score, no drug 0.426; inactive.
After knock-down of CDK12 (cyclin dependent kinase 12), the record shows robust z-score, no drug -0.812; inactive.
With knock-down of NUCKS1 the results were robust z-score, no drug 0.426; inactive.
After knock-down of CDK10 (cyclin dependent kinase 10) the results were robust z-score, no drug 0.426; inactive.
With knock-down of CAMK1G (calcium/calmodulin dependent protein kinase IG), the record shows robust z-score, no drug 0.426; inactive.
SRGAP3 (SLIT-ROBO Rho GTPase activating protein 3) scored robust z-score, no drug 0.426; inactive.
CDK8 (cyclin dependent kinase 8) scored robust z-score, no drug 0.426; inactive.

Entries listed so far whose target name starts with N or n (2):
NME3 (NME/NM23 nucleoside diphosphate kinase 3) | robust z-score, no drug = 0.226; Outcome = inactive
NUCKS1 | robust z-score, no drug = 0.426; Outcome = inactive

The list goes on:
Silencing of PIKFYVE (phosphoinositide kinase, FYVE-type zinc finger containing) gave: robust z-score, no drug 0.426; inactive.
TWF1 (twinfilin actin binding protein 1) scored robust z-score, no drug 0.426; inactive.
Silencing of CAMK2D (calcium/calmodulin dependent protein kinase II delta) resulted in: robust z-score, no drug 0.426; inactive.
Silencing of ROCK1 (Rho associated coiled-coil containing protein kinase 1) gave: robust z-score, no drug 0.426; inactive.
For PPP2R1A (protein phosphatase 2 scaffold subunit Aalpha), the entry reads robust z-score, no drug 0.426; inactive.
With knock-down of MET (MET proto-oncogene, receptor tyrosine kinase), the record shows robust z-score, no drug 0.426; inactive.
Silencing of MKNK2 (MAPK interacting serine/threonine kinase 2) resulted in: robust z-score, no drug 0.426; inactive.
For DLG2 (discs large MAGUK scaffold protein 2) the deposit lists robust z-score, no drug 0.426; inactive.
Knock-down of MST1R (macrophage stimulating 1 receptor) gave: robust z-score, no drug -0.937; inactive.
Knock-down of CSNK1A1L (casein kinase 1 alpha 1 like) came out at: robust z-score, no drug 0.426; inactive.
Depletion of NEK4 (NIMA related kinase 4) resulted in: robust z-score, no drug 0.426; inactive.
MAPK9 (mitogen-activated protein kinase 9) gave robust z-score, no drug 0.426; inactive.
With knock-down of ADGRL2 (adhesion G protein-coupled receptor L2), the record shows robust z-score, no drug 0.426; inactive.
After knock-down of LIMK2 (LIM domain kinase 2) the results were robust z-score, no drug 0.426; inactive.
Knock-down of PLK2 (polo like kinase 2) came out at: robust z-score, no drug 0.426; inactive.
